# Measurements reported in PubChem BioAssay AID1347131 (National Center for Advancing Translational Sciences (NCATS), 2019).
# The campaign covered roughly 410,000 compounds. About 2,000 (0.49%) were called active. Inconclusive results, whose numbers are uncertain, are shown with a selection of clear calls. Calls come from the whole dose curve; tested in HEK293 reporter line. Potencies of inconclusive entries are doubtful fits and often do not repeat.
# Assay: qHTS Assay for Foot and Mouth Disease Virus Antivirals: Primary Screen against the MLPCN compound library; note: nearly all actives have a fitted effect of over 55% in size
# Settings: FMDV antiviral cell-based qHTS; activity, negative = inhibition: at 57.9 µM (top of the series)
# Potency is the fitted concentration of half-maximal effect.
Compound,Potency,"activity, negative = inhibition"
CC(=O)N1CCN(c2ccc(Nc3ncnc4c3oc3ccccc34)cc2)CC1,"inconclusive: 28.2 µM [inhibitor, partial curve, poor fit]",
CC(C)c1ccc(CN2CCN(C(=O)CCl)CC2)cc1,"inconclusive: 17.8 µM [inhibitor, partial curve, poor fit]",
NS(=O)(=O)c1ccc(Nc2nc(-c3ccc(O)cc3O)cs2)cc1,,inactive: -33%
CCS(=O)(=O)Nc1cccc(C(=O)O)c1,"inconclusive: 5.62 µM [inhibitor, partial curve]",
Cc1cccc(N2CCN(C(=O)c3ccc4nc(-c5ccco5)c(-c5ccco5)nc4c3)CC2C)c1 (centres undefined),"inconclusive: 25.1 µM [inhibitor, partial curve, poor fit]",
Cc1c(C(=O)Nc2ccc3c(c2)OCCO3)sc2nc(-c3ccccc3)cn12,"inconclusive: 15.8 µM [inhibitor, partial curve, poor fit]",
Fc1ccc2[nH]c3c(N4CCN(Cc5ccc6c(c5)OCO6)CC4)ncnc3c2c1,"inconclusive: 6.31 µM [inhibitor, partial curve, poor fit]",
NNC(=O)c1n[nH]c2c1CC(C1CCCCC1)CC2 (centres undefined),"inconclusive: 35.5 µM [inhibitor, partial curve, poor fit]",
Cc1ccc(Cl)cc1NC(=O)c1cc2ccccc2cc1O,,inactive: -20.1%
c1cn(-c2ncnc3ccc(-c4ccoc4)cc23)cn1,"inconclusive: 28.2 µM [inhibitor, partial curve, poor fit]",
CCOc1c(Br)cc(CNc2ccc3c(c2)OCCO3)cc1OC,"inconclusive: 25.1 µM [inhibitor, partial curve, poor fit]",
CC1=CC(=O)C(C(C)C)=C/C1=N/OS(=O)(=O)c1ccccc1,"inconclusive: 25.1 µM [inhibitor, partial curve, poor fit]",
O=C(Nc1c2c(nn1-c1ccccc1)CS(=O)(=O)C2)C1CCCC1,,inconclusive: -30.3% [inhibitor]
CS(=O)(=O)c1nsc2nc(=O)c(/C=C3\C=Nc4ccccc43)c(N)n12,"inconclusive: 3.16 µM [inhibitor, full curve]",
Cc1ccc(NC2=C(Cl)C(=O)c3ccccc3C2=O)cc1,"inconclusive: 39.8 µM [inhibitor, single point]",
Cc1cccc(-n2c(=O)c3ccccc3n(Cc3ccc(F)cc3)c2=O)c1,"inconclusive: 3.98 µM [inhibitor, partial curve]",
COc1ccc(N(C)S(=O)(=O)c2cccc(C(=O)Nc3ccc(-n4cnnn4)cc3)c2)cc1,"inconclusive: 39.8 µM [inhibitor, partial curve, poor fit]",
O=C(NCCc1ccc(F)cc1)C(=O)NCC1CCCN1S(=O)(=O)c1ccccc1 (centres undefined),"inconclusive: 39.8 µM [inhibitor, partial curve, poor fit]",
CC1=NN(c2ccccc2)C(=O)/C1=C\C=C\c1ccccc1,"inconclusive: 22.4 µM [inhibitor, partial curve, poor fit]",
O=C1C(=C2SCCCS2)CC/C1=C\c1ccc(F)cc1,"inconclusive: 5.01 µM [inhibitor, full curve, poor fit]",

# Entries listed so far that contain an aryl methoxy group (2):
Compound,Potency,"activity, negative = inhibition"
CCOc1c(Br)cc(CNc2ccc3c(c2)OCCO3)cc1OC,"inconclusive: 25.1 µM [inhibitor, partial curve, poor fit]",
COc1ccc(N(C)S(=O)(=O)c2cccc(C(=O)Nc3ccc(-n4cnnn4)cc3)c2)cc1,"inconclusive: 39.8 µM [inhibitor, partial curve, poor fit]",

# Next results:

Compound,Potency,"activity, negative = inhibition"
COc1cc(/C=C(/C)[N+](=O)[O-])ccc1OCc1ccccc1Cl,"inconclusive: 22.4 µM [inhibitor, partial curve, poor fit]",
CCOC(=O)C1Nc2ccc(C(F)(F)F)cc2C2c3ccccc3CC12 (centres undefined),"inconclusive: 28.2 µM [inhibitor, partial curve, poor fit]",
Cc1onc(-c2ccccc2)c1C(=O)n1nnc2ccccc21,,inactive: -36.4%
O=C(NN1CCOCC1)c1cc(-c2cccc(Cl)c2)nc2ccccc12,"inconclusive: 20 µM [inhibitor, single point]",
COc1ccc(CC(N)c2csc(NC(=O)Nc3ccc(F)cc3)n2)cc1 (centres undefined),"inconclusive: 22.4 µM [inhibitor, single point]",
COc1ccccc1N1CCN(C(=O)C2CCCN(S(=O)(=O)c3ccc4c(c3)CCCN4C(C)=O)C2)CC1 (centres undefined),"inconclusive: 28.2 µM [inhibitor, partial curve, poor fit]",
COC(=O)C(C)N(C(=O)c1ccc(Cl)cc1)c1c(C)cccc1C (centres undefined),"inconclusive: 28.2 µM [inhibitor, partial curve, poor fit]",
C=CCn1c(=O)c(C=Nc2c(OC)cccc2[N+](=O)[O-])c(O)n(CCCC)c1=O,"inconclusive: 8.91 µM [inhibitor, partial curve, poor fit]",
CN(Cc1ccccc1F)C(=O)C1CCCN(C(=O)c2ccc(Cl)cc2)C1 (centres undefined),"inconclusive: 25.1 µM [inhibitor, partial curve, poor fit]",
Cc1ccc(-n2c(-c3ccc(Br)cc3)c[n+]3c2CCc2ccc4cccnc4c2-3)cc1,"inconclusive: 1.12 µM [inhibitor, full curve, poor fit]",
O=C(Nc1cccc(-c2csc(Nc3cccc(C(F)(F)F)c3)n2)c1)c1cc([N+](=O)[O-])cc(C(F)(F)F)c1,"inconclusive: 39.8 µM [inhibitor, partial curve, poor fit]",
CCC(CC)C1C(C#N)=C(N)Oc2n[nH]c(C)c21 (centres undefined),"inconclusive: 35.5 µM [inhibitor, single point]",
CCOC(=O)C1(Cc2ccccc2)CCN(CC2CC=CCC2)CC1 (centres undefined),"inconclusive: 25.1 µM [inhibitor, partial curve, poor fit]",
COc1ccc(/C=N/NC(=S)Nc2cccc(C(=O)O)c2)cc1OC,"inconclusive: 15.8 µM [inhibitor, partial curve, poor fit]",
Oc1ccc(/C=N/Nc2nc(-c3ccc(Cl)cc3)cc(C(F)(F)F)n2)cc1,"inconclusive: 25.1 µM [inhibitor, single point]",
CCCS(=O)(=O)c1cnc(C2COc3ccccc3O2)nc1N (centres undefined),"inconclusive: 35.5 µM [inhibitor, partial curve, poor fit]",
CCOc1ccc(-c2nnc(-c3cccs3)o2)cc1,active: 15.8 µM,
O=C(c1ccccc1)N1CCN(CCc2ccccn2)CC1,"inconclusive: 8.91 µM [inhibitor, partial curve]",
CN(C)CCN(Cc1ccccc1)C(=O)c1[nH]c(C(F)(F)F)nc1-c1ccccc1,"inconclusive: 35.5 µM [inhibitor, partial curve, poor fit]",
Cc1cc(=S)nc(-c2ccccn2)[nH]1,,inactive: -33.8%

# At a glance, 2 of the compounds above:
Compound,Potency,"activity, negative = inhibition"
CCC(CC)C1C(C#N)=C(N)Oc2n[nH]c(C)c21 (centres undefined),"inconclusive: 35.5 µM [inhibitor, single point]",
CCOC(=O)C1(Cc2ccccc2)CCN(CC2CC=CCC2)CC1 (centres undefined),"inconclusive: 25.1 µM [inhibitor, partial curve, poor fit]",

# (next part)

Compound,Potency,"activity, negative = inhibition"
N#CC(C#N)=C(Nc1ccc(F)cc1)SCc1cccc(Br)c1,"inconclusive: 1.78 µM [inhibitor, partial curve, poor fit]",
CCCC/C=C1/CCC(CN(C)C)C1=O (centres undefined),"inconclusive: 28.2 µM [inhibitor, partial curve, poor fit]",
Cc1ccc(CS(=O)(=O)c2ccc(C(=O)N3CCN(c4ccccn4)CC3)cc2[N+](=O)[O-])cc1,"inconclusive: 15.8 µM [inhibitor, partial curve, poor fit]",
CC(C)(C)c1ccc(C(=O)Nc2ccc(CC(=O)O)cc2)o1,"inconclusive: 0.794 µM [inhibitor, full curve, poor fit]",
COC(=O)c1ccc2c(c1)C(C)(C)C(/C=C/c1ccc(OC)c(OC)c1OC)=[N+]2C,"inconclusive: 15.8 µM [inhibitor, partial curve, poor fit]",
CCOC(=O)Cc1csc(NC(=O)/C=C/c2ccccc2Cl)n1,"inconclusive: 39.8 µM [inhibitor, single point]",
Cc1ccccc1Cn1nc(C)c(NC(=O)c2sc3ccccc3c2Cl)c1C,"inconclusive: 31.6 µM [inhibitor, partial curve, poor fit]",
O=C(O)c1ccc(/C=C/C(=O)c2ccc3c(c2)OCCCO3)cc1,"inconclusive: 10 µM [inhibitor, partial curve, poor fit]",
COC(=O)C1=C(C)NC(=S)NC1c1ccc(-c2ccccc2C(=O)OC)o1 (centres undefined),"inconclusive: 28.2 µM [inhibitor, partial curve, poor fit]",
O/C(=C\c1ccc2ccccc2n1)c1ccc(O)cc1O,"inconclusive: 10 µM [inhibitor, partial curve, poor fit]",
Fc1cnc(N2CCN(c3ccccc3)CC2)nc1N1CCN(c2ccccc2)CC1,"inconclusive: 20 µM [inhibitor, partial curve, poor fit]",
N#C/C(=C\c1ccccc1[N+](=O)[O-])C(=O)NC1CCCCC1,"inconclusive: 35.5 µM [inhibitor, partial curve, poor fit]",
O=C(CCl)Nc1ccc(Sc2ccc(NC(=O)CCl)cc2)cc1,"inconclusive: 7.94 µM [inhibitor, full curve, poor fit]",
COc1ccc(CN2CCN(Cc3ccc(C(F)(F)F)cc3)CC2)c(OC)c1,,inactive: -30.9%
CC1C(=O)N(Cc2cccc(F)c2)c2ccccc2N1C(=O)c1ccccc1 (centres undefined),"inconclusive: 17.8 µM [inhibitor, partial curve, poor fit]",
Cc1nc2ccccc2n1-c1ccccc1,,inconclusive: -32% [inhibitor]
O=C(CSc1ccccc1Cl)N1CCC(c2nc3ccccc3s2)CC1,"inconclusive: 35.5 µM [inhibitor, partial curve, poor fit]",
COc1ccc(C(=O)Nn2c(SCC(=O)N3CCC(C)CC3)nc3ccccc3c2=O)cc1,"inconclusive: 11.2 µM [inhibitor, partial curve, poor fit]",
CSc1nc(NCCOCCO)c2sc3nc(-c4ccco4)c4c(c3c2n1)CCC4,"inconclusive: 39.8 µM [inhibitor, single point]",
